Laboratory results published in patent US20100098682A1.
Results are given in words; binding and its absence hold for the method and conditions named. In cells and extracts the contact can be indirect. Some entries that bind do so weakly or less than the wild type. Sequences can lack the tags named with a protein.

How the values were obtained:
[1] = target: Amyloid precursor protein (APP), full length (human) (UniProt P05067); assay: αFLAG co-immunoprecipitation from co-transfected HeLa cell lysates, western blot
[2] = target: Amyloid precursor protein (APP), full length (human) (UniProt P05067); assay: αFLAG co-immunoprecipitation from co-transfected HeLa cell lysates (FIG. 1d)

binding [1]: binds | binding [2]: binds
B1: FLAG-BRI2 1-131 (amino acids 1 to 131 of BRI2, N-terminal FLAG tag) (protein, not shown: small tags and cut ends)
chain: MVKVTFNSALAQKEAKKDEPKSGEEALIIPPDAVAVDCKDPDDVVPVGQRRAWCWCMCFGLAFMLAGVILGGAYLYKYFALQPDDVYYCGIKYIKDDVILNEPSADAPAALYQTIEENIKIFEEEEVEFIS
